In the supplement of paper PMC5949888:
Most values lie at the floor of the assay. Slopes are relative: functional sequences can read slightly below zero.

Test system: Saccharomyces cerevisiae PS128 hsf1 delta, HSF1(1-493) fusion
Assay: growth estimate (transactivation domain function in HSF1 fusion, heat-shock survival) (a.u. (slope of normalised read count over time)); higher = stronger growth at 37°C, i.e. more transactivation activity
Settings: library: random library

Row | Substance | growth estimate
1 | VFEAW | < -0.25
2 | GCVTLGRQQRRRTLVSLQAV | < -0.25
3 | FVLSLAYCPRRS | < -0.25
4 | TLFGCDRVSVSRRL | < -0.25
5 | TGPTKQARSVA | < -0.25
6 | LVDYIKIA | < -0.25
7 | SGKIPGGWQCGSGRTRHEDN | < -0.25
8 | TRNETAISLVRLWGLRKPPR | < -0.25
9 | TLLSEDRIRRADNLPFSGAS | < -0.25
10 | PPDGPYRHTGSPKIVQKVEL | < -0.25
11 | LMGTGLLWRNAGRNPSHGPE | < -0.25
12 | YRDSPNDIIV | -0.218
13 | RVMGLRGSGHKNPGSIKVSL | < -0.25
14 | RNAVLCASVTWQHIGHDSVA | < -0.25
15 | AKRCRVRI | < -0.25
16 | LANYRDQTGL | < -0.25
17 | KRLTEFYVGGLS | < -0.25
18 | TSSRIL | < -0.25
19 | WVVSLSTPA | < -0.25
20 | CHMMIPV | < -0.25
21 | IYHGAYTAIDARTRRGRTQA | -0.223
22 | KKIGE | < -0.25
23 | GRHGNRTRLNKLHTGTWYAT | < -0.25

Given in CSV form: part of the list above.
Row,Substance,growth estimate
3,FVLSLAYCPRRS,< -0.25
6,LVDYIKIA,< -0.25
10,PPDGPYRHTGSPKIVQKVEL,< -0.25
17,KRLTEFYVGGLS,< -0.25

Next records

Row | Substance | growth estimate
24 | TCTYYGIGSSVLRANPGGPN | < -0.25
25 | HPISGMG | < -0.25
26 | RHSLAPALYSLDFQ | < -0.25
27 | YVH | < -0.25
28 | WMHRSLCTCITTNFVRTLSE | < -0.25
29 | SCSGRWSGRLLTVRT | < -0.25
30 | VDRVAARITMQRKQHQTVKL | < -0.25
31 | SRRLGDPWRLGLFLVICYGA | < -0.25
32 | SPNCYQR | -0.243
33 | IMARN | < -0.25
34 | FRLYSSSAR | < -0.25
35 | LKLGRGSGRGGAKARVIQGT | < -0.25
36 | LNPTSQMSVVQRRSRLSIIL | < -0.25
37 | KFWSKNSRTGKHRGT | < -0.25
38 | FVKT | < -0.25
39 | ELPQYDRYGRKSLFSRGCRG | < -0.25
40 | DNMRNLCTILPTLHLAF | < -0.25
41 | VDGHPMRQTNICLMTRIPSP | < -0.25
42 | RTCEVSAWTTRRRSDSSSSF | < -0.25
43 | QFVERFRRSIRYLVTT | < -0.25
44 | QRAYGSSECKL | < -0.25
45 | LSKLESS | < -0.25
46 | VWCYEGPGCSRYPRSTRKAG | < -0.25

Row | Substance | growth estimate
47 | SASYLRVKCRFGRRSHVSST | < -0.25
48 | GNYYRFKRLLHQIWRPIHCT | < -0.25
49 | MWLGRERALPEASQSA | < -0.25
50 | QDLLF | < -0.25
51 | APQGGLGCMPLRVPDGAKRA | < -0.25
52 | KVDSPGDGVVAITTRAPPHG | -0.145
53 | QEYNHYSRKGYEVSAVF | < -0.25
54 | VAVLRGRMNLHPL | < -0.25
55 | SWLGLIELLIVGSQFLR | < -0.25
56 | IAANMELKCR | < -0.25
57 | SRWNHPVVRDNGKAEATIVT | < -0.25
58 | YPILAEG | < -0.25
59 | KGGSWG | < -0.25
60 | TCE | < -0.25
61 | GNRLYLE | < -0.25
62 | QARTTSWLHEVFRGASLEF | < -0.25
63 | PRSGFERMNTLDKSPGRPET | < -0.25
64 | LIDMGALFTVEVQTAKIGSL | -0.129
65 | QTMAGY | < -0.25
66 | ERMWFDFNPSANLCSSPVGG | < -0.25
67 | EKAQTQGRWLGAGRAPLQHI | < -0.25
68 | GIVRTSTAVFFCLQPTASQG | < -0.25
69 | MLVRLLSLSQSR | < -0.25

Retrieved one by one from the entries so far:
Row | Substance | growth estimate
49 | MWLGRERALPEASQSA | < -0.25
65 | QTMAGY | < -0.25

The results go on:

Row | Substance | growth estimate
70 | FESAMFRAPAADP | < -0.25
71 | WPLLTYGLILSGYSLLFSIP | < -0.25
72 | RTPRDMIG | < -0.25
73 | GCGLRAAC | < -0.25
74 | SVSIVL | < -0.25
75 | GECSLPNGNNGDGNSTRPRD | < -0.25
76 | PGRDVSISGATGEAPYGPDG | < -0.25
77 | YVTFLTHTRR | < -0.25
78 | GDLDL | < -0.25
79 | ASPLNPKAFLVHEGARRLFS | < -0.25
80 | ELVNNGTVQPGVLGQHRLGQ | < -0.25
81 | HTDSTGAQRSDHSTRWRGL | < -0.25
82 | ACIQVQPSLTCGLGVPAYP | < -0.25
83 | PVNHELLSPVSGLLLGEAGR | < -0.25
84 | SPDC | < -0.25
85 | VRESLGDLTITAYTWYEPGL | < -0.25
86 | RNDIN | < -0.25
87 | TTVVN | < -0.25
88 | WHPQESFVCEHVGHLSRETL | < -0.25
89 | LSVAQGTGRSGIPSRVPHAG | < -0.25
90 | CPGCKIAFHDFVLVI | < -0.25
91 | ISRGVSRGPMDQQQPGRRWI | < -0.25
92 | ALRVMGLGGARY | < -0.25

Row | Substance | growth estimate
93 | AAGIQPAVKCLRPCYASLRP | < -0.25
94 | PSIVLGE | < -0.25
95 | LLVESRRTRSAGPVLCAEQV | < -0.25
96 | YKRERLQKVHTQRRASAAD | < -0.25
97 | NSRAREQPCHQLRYQQPMLA | < -0.25
98 | IKLAAKRISNQGRASWLELT | < -0.25
99 | QCGSSTVCRCRVSTNRGKSG | < -0.25
100 | TAGN | < -0.25
101 | PWVIPQTAKGHEPRKSASAD | < -0.25
102 | GDHRLPTRLIADSLTDGGM | < -0.25
103 | VKGELLDCSCLGIVTLHSVL | < -0.25
104 | SHYRADFG | < -0.25
105 | VNMPKGQPTEQSGNGIVDNL | < -0.25
106 | HQRP | < -0.25
107 | GTCRHRQARVLIPAERLPLK | < -0.25
108 | CRESTSTLREPIASSASFFA | < -0.25
109 | RHVKEDLFHSAVLRM | < -0.25
110 | SIMPSSESQSGDTAATRRDT | < -0.25
111 | DQRKATTEWGKDIEEQFSHP | < -0.25
112 | NVPAHNSEGPAPE | < -0.25
113 | WEAQDKRGSYANGQTELTAL | < -0.25
114 | TRVFGAVKRDRTVP | < -0.25
115 | EKCTCRRRQN | < -0.25

Row | Substance | growth estimate
116 | RLISPLV | < -0.25
117 | GFFFRSASDASPDPSARVFT | 0.0944
118 | FQSSVKSCVPSVSPRGATVA | < -0.25
119 | VPPAVSRLTRASVRWFSTQI | < -0.25
120 | SRVTTL | < -0.25
121 | SILTVGSHLI | < -0.25
122 | ARGSGAKR | < -0.25
123 | ANRLCSIGKRVYTPRTR | < -0.25
124 | LFGPWSYTPSYYTEASRCAV | < -0.25
125 | QYGLHCCATS | -0.245
126 | PLRIPPLQLK | -0.246
127 | DVCSDSCHSKGIRAGIITTQ | < -0.25
128 | RKFGCIGSREKKGATRSQSS | < -0.25
129 | SLRSCDQRTSDARVSTSDLG | < -0.25
130 | YKVREGLS | < -0.25
131 | GTMLERRT | -0.0197
132 | DQVDSVPQGGIGLGTVRFHL | < -0.25
133 | GIYILKLLIF | -0.112
134 | TSCRSSRAIDVKGIIARRRL | < -0.25
135 | QSVTI | < -0.25
136 | VIQPSASYSRKEG | < -0.25
137 | CSYLDWKRN | < -0.25
138 | QIHRSSLGQGCGPSNSIS | < -0.25

Row | Substance | growth estimate
139 | GYCRPQPFQVHDPCRAVIMR | < -0.25
140 | GLQ | < -0.25
141 | SQCKSMFACSA | < -0.25
142 | CQSSWRSLGLVGNQV | < -0.25
143 | DFCVVEGFGPTIILGAARGL | < -0.25
144 | RDRRQS | < -0.25
145 | FGP | < -0.25
146 | IGEM | < -0.25
147 | MPRLVL | < -0.25
148 | ITEVCCMGASRESLRCSWYE | < -0.25
149 | KFNHAGPPRTFDGVVTLYVL | < -0.25
150 | LIVESV | < -0.25
151 | LTVRKGSFDTRGCCMDTCLG | < -0.25
152 | GVLIGHHCEWSWVCPCSF | 0.0976
153 | RVHARGACNLREKEEE | < -0.25
154 | HRPTSSKNKFQHRVSR | < -0.25
155 | DLPRNEENTGGNRH | < -0.25
156 | GILSLGLLPHFHIIDCSSFS | < -0.25
157 | MFCLGSIA | < -0.25
158 | PGNPKVGGQSWANKKVSNRL | -0.231
159 | KRILEPG | < -0.25
